Counter-ions that a name gives are not always drawn. This is one part of the list. The calls rarely recur for the same compound in another form.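 Kinases, fused to nanoluciferase, were expressed in K562 cells; luminescence was measured every 4 h from 2 to 18 h as percent of control (DMSO = 100%, positive control = 0%). A time point is decreased if signal falls significantly (2 sigma). Hits were called by the authors by a rule that is not shown; the count of time points alone does not decide it.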
target: HER2 (UniProt P04626); assay: number of time points (of 5) at which kinase-Nluc abundance scored as decreased, DMSO-normalised (count); higher = more persistent destabilization; details: K562; 2-18 h

SMILES	number of time points
Cc1cnc(Cl)nc1-c1ccc(N(Cc2ccc(CNC(=O)C(F)F)cc2)C(=O)c2ccc(O)cc2O)cc1 (10 µM)	0
COc1cc2c(cc1OC)[C@@H]1C(=O)c3ccc4c(c3O[C@@H]1CO2)C=CC(C)(C)O4 [Deguelin] (10 µM)	0
CC(C)(CCCCCC(O)CCCCCC(C)(C)C(=O)O)C(=O)O [Bempedoic acid] (10 µM)	0
COc1cc2nnc(C(N)=O)c(Nc3ccc(C)cc3F)c2cc1N1CCN(CCO)CC1 (2.5 µM)	0
O=C(Nc1ccc(Cl)cc1)C1CN(C(=O)c2cccc(-c3ccco3)c2)CC(F)(F)C1 (stereo not drawn) (2.5 µM)	0
CC(=O)O[C@@H]1[C@@H](OC(C)=O)[C@@H](O)[C@H](Oc2c(-c3ccc(O)cc3)oc3cc(O)cc(O)c3c2=O)O[C@H]1C (10 µM)	0
COc1cc2nc(-c3cc(F)ccc3O)nc(N[C@@H]3CNC[C@H]3C(C)(C)O)c2cc1OC (2.5 µM)	0
C=CC(=O)Nc1cccc(Oc2nc(Nc3ccc(N4CCN(C)CC4)cc3OC)ncc2Cl)c1 (10 µM)	5
C=CC(=O)Nc1cc(Nc2nccc(-c3cn(C)c4ccccc34)n2)c(OCC(F)(F)F)nc1N(C)CCNC [AST5902  (trimesylate)] (2.5 µM)	3
O=C1C=CC2=C3c4cc(O)c(O)cc4CC3(O)COC2=C1O (stereo not drawn) [Hematein] (10 µM)	0
CCC(F)(F)c1cc(N2CCC(S(C)(=O)=O)CC2)nc2sc(C(N)=O)c(N)c12 (10 µM)	0
Cn1cc(C2=C(c3ccc(Cl)cc3Cl)C(=O)NC2=O)c2ccccc21 (10 µM)	0
CCOC(=O)c1c(N2CCc3ccc(OC)cc3C2)oc(C=C2C=Nc3ncccc32)c1O (10 µM)	0
O=C(COc1ccc(Cl)cc1)NC1CCC(NC(=O)COc2ccc(Cl)cc2)CC1 (stereo not drawn) [ISRIB (trans-isomer)] (10 µM)	0
COc1ccc(CCNCc2ccc(OCc3ccc(Cl)nc3)c(OC)c2)cc1OC [SBE13 (Hydrochloride)] (10 µM)	0
Cc1cccc(CC(=O)N2CCc3c2ccc(-c2cn(C)c4ncnc(N)c24)c3F)n1 (10 µM)	3
COc1cc(N2CCC(N3CCN(C)CC3)CC2)ccc1Nc1ncnc(Nc2ccccc2S(=O)(=O)C(C)C)n1 (10 µM)	0
CC(C)(Oc1ccc(Cl)cc1)C(=O)Nc1ccc(OCc2ccc(C#N)cc2)cc1 [AMPK activator 4] (10 µM)	0
Cc1cc(N2CCOCC2)ccc1Nc1nc(NC2CCCCC2)c2[nH]cnc2n1 (10 µM)	0

SMILES	number of time points
COC(=O)N1CCN(C2CCC(Nc3nc(Nc4cnn(C)c4)nc4ccc(CC#N)nc34)CC2)CC1 (stereo not drawn) (10 µM)	0
CN(C)CCn1cc2cc(NC(=O)c3cccc(C(F)(F)F)n3)c(C(C)(C)O)cc2n1 (10 µM)	0
CCOc1cc(N2CCC(O)CC2)ccc1Nc1ncc2c(n1)N(C1CCCC1)CCC(=O)N2C (2.5 µM)	0
CCC[C@H](C)Oc1nc(N)c2[nH]c(=O)n(CCCCCN3CCCCC3)c2n1 (10 µM)	0
Fc1ccc(-c2nc3n(c2-c2ccncc2)CCS3)cc1 (10 µM)	0
CC(ONC(=O)c1cc(C(F)(F)F)cc(C(F)(F)F)c1)C(=O)Nc1ccc(Cl)cc1 (stereo not drawn) (2.5 µM)	5
O=C(Nc1ccccc1C(=O)NC1CCCCNC1=O)c1cc2ccccc2s1 (stereo not drawn) (10 µM)	0
N#CC(=C(/N)Sc1ccccc1N)/C(C#N)=C(\N)Sc1ccccc1N (10 µM)	1
Nc1ccc(O)c(C(=O)O)c1 [5-Aminosalicylic Acid] (10 µM)	0
CNCc1ccccc1Sc1cccc2ccccc12 [IFN alpha-IFNAR-IN-1 (hydrochloride)] (10 µM)	1
CCCCNc1ncc2c(-c3ccc(F)cc3)nn(CC3CCC(N)CC3)c2n1 (stereo not drawn) (2.5 µM)	0
Cc1ncsc1-c1ccc(CNC(=O)[C@@H]2C[C@@H](O)CN2C(=O)[C@@H](NC(=O)COCCOc2ccc(-c3cc(Nc4ccc(OC(F)(F)F)cc4)ncn3)cc2)C(C)(C)C)cc1 (2.5 µM)	1
Cn1cnc2c(F)c(Nc3ccc(Br)cc3F)c(C(=O)NOCCO)cc21 [Binimetinib] (10 µM)	0
O=C1NC(=O)C(Cc2c[nH]c3c(Cl)cccc23)N1 (stereo not drawn) [Necroptosis-IN-1] (10 µM)	0
C=CC(=O)N1CCC(c2ccc(C(N)=O)c(-c3ccc(Oc4ccccc4)cc3)n2)CC1 [Orelabrutinib] (2.5 µM)	0
CN1C(=O)N[C@@H](Cc2c[nH]c3c(Cl)cccc23)C1=O [Necrostatin 2 (S enantiomer)] (10 µM)	0
N#Cc1cc(-c2ccnc(Nc3ccc(N4CCOCC4)cc3)n2)ccc1OC1CCOCC1 (10 µM)	5
COc1cccc(-c2cc(=O)c3ccccc3o2)c1N (10 µM)	0
Nc1ccc(Sc2nc3ccccc3s2)c(Cl)c1 [KRAS inhibitor-9] (10 µM)	0

Part of the list above in order of number of heavy atoms, rising:
SMILES	number of time points
O=C1NC(=O)C(Cc2c[nH]c3c(Cl)cccc23)N1 (stereo not drawn) [Necroptosis-IN-1] (10 µM)	0
N#CC(=C(/N)Sc1ccccc1N)/C(C#N)=C(\N)Sc1ccccc1N (10 µM)	1
O=C(Nc1ccccc1C(=O)NC1CCCCNC1=O)c1cc2ccccc2s1 (stereo not drawn) (10 µM)	0

From the supplement of paper PMC12823440, “Inhibitors supercharge kinase turnover through native proteolytic circuits” (Nature, 2025)
